{"source": "PubChem BioAssay AID493014", "about": "(National Center for Advancing Translational Sciences (NCATS), 2011)", "note": "Out of some 340,000 compounds screened, about 170 (0.05%) were called active. This list was built around the results that the source calls inconclusive (neither active nor inactive); the mix of calls is not that of the screen. The call rests on the fitted dose curve; in most records, active means well fitted inhibition curve with a large enough effect in the signal ratio, with a control signal flat (not every such curve was filed as active); inconclusive means small, poorly fitted or top-dose-only effect, or effect the other way, or a change in a side signal; inactive means flat fitted curve, though single readings scatter; the % refers to the signal ratio. Potencies beside an inconclusive call are fits to weak or partial responses and may not hold up. Potency means the concentration at half of the fitted maximal effect."}
{"test": "qHTS Assay to Find Inhibitors of Chronic Active B-Cell Receptor Signaling;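 on activity change, negative = inhibition: plate controls were basal doxycycline-induced cells for no effect and cells given 10 µM MG132 for full effect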", "settings": "ABC-DLBCL IkBa-CBG/CBR reporter, luminescence ratio (green luciferase fused to IkBa over red control in TMD8 lymphoma cells), 4 h; activity change, negative = inhibition: at 46.1 µM (top of the series)", "outline": "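TMD8 ABC-DLBCL cells carrying doxycycline-inducible green luciferase fused to IkappaBalpha plus unfused red luciferase were exposed to compounds (up to 46 uM) for 4 hrs at 37C. Activity came from the overlap-corrected green/red luminescence ratio.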"}
{"smiles": "CCCC(=O)Nc1nnc(-c2cccc(OCC)c2)s1", "activity change, negative = inhibition": "inactive: 2.3%"}
{"smiles": "O=C(NCCN1CCCCC1)Nc1ccccc1Cl", "activity change, negative = inhibition": "inconclusive: 0.642%"}
{"smiles": "CCCN(C(=O)c1cccs1)c1nnc(-c2ccncc2)s1", "activity change, negative = inhibition": "inconclusive: -13.4%"}
{"smiles": "Cc1ccc(Nc2c(-c3ccc(C)o3)nc3ncccn23)cc1", "activity change, negative = inhibition": "inactive: 10.2%"}
{"smiles": "N#C/C(=C\\c1ccc(Oc2ccc(C(F)(F)F)cc2[N+](=O)[O-])cc1)c1nc2ccccc2[nH]1", "activity change, negative = inhibition": "inactive: 15.7%"}
{"smiles": "Cc1cc(OCC(=O)N(C)C)c2c(-c3ccccc3)cc(=O)oc2c1", "activity change, negative = inhibition": "inconclusive: 8.58%"}
{"smiles": "CC(C)C(=O)N1CCN(c2ccc(NC(=O)c3ccc4c(c3)OCCO4)cc2)CC1", "activity change, negative = inhibition": "inconclusive: -5.03%"}
{"smiles": "Cc1occc(=O)c1OC(=O)Nc1ccc(Cl)c(Cl)c1", "activity change, negative = inhibition": "inconclusive: 8.22%"}
{"smiles": "COc1cc(NC(=O)c2cc(C(C)C)on2)cc(OC)c1OC", "activity change, negative = inhibition": "inconclusive: -16.4%"}
{"smiles": "C[C@@H]1C[C@H]2[C@@H]3C[C@H](F)C4=CC(=O)C=C[C@]4(C)[C@@]3(Cl)[C@@H](O)C[C@]2(C)[C@H]1C(=O)COC(=O)C(C)(C)C", "activity change, negative = inhibition": "inconclusive: 4.39%"}
{"smiles": "COc1ccc(NC(=O)NS(=O)(=O)c2ccc(C)cc2)c(OC)c1", "activity change, negative = inhibition": "inconclusive: 3.5%"}
{"smiles": "Cc1onc(-c2ccccc2)c1C(=O)N1CCN(Cc2ccc3c(c2)OCO3)CC1", "activity change, negative = inhibition": "inconclusive: 1.89%"}
{"smiles": "O=C(NCCCN1CCOCC1)c1cc2nc(-c3ccco3)cc(C(F)(F)F)n2n1", "activity change, negative = inhibition": "inactive: 2.5%"}
{"smiles": "O=C1c2cccnc2Oc2ccc(Cl)cc2N1Cc1ccc(F)cc1", "activity change, negative = inhibition": "inconclusive: -0.622%"}
{"smiles": "O=C(Nc1ccccc1F)c1cc(S(=O)(=O)N2CCOCC2)ccc1N1CCOCC1", "activity change, negative = inhibition": "inactive: 4.75%"}
{"smiles": "Cc1cccc(NC(=O)Cn2c(=O)n3nc(CCn4nc(C)cc4C)nc3c3ccccc32)c1", "activity change, negative = inhibition": "inconclusive: -0.465%"}
{"smiles": "O=C(Nc1cccnc1Cl)c1ccc(S(=O)(=O)N2CCCCCC2)cc1", "activity change, negative = inhibition": "inconclusive: 14.1%"}
{"smiles": "CCOc1cccc2sc(N(Cc3cccnc3)C(=O)C3CCCCC3)nc12", "Potency": "inconclusive: 25.1 µM [falling, partial curve]"}
{"smiles": "Cc1c(C(=O)N2CCN(c3ccccn3)CC2)sc2ncnc(N3CCOCC3)c12", "activity change, negative = inhibition": "inconclusive: 13.7%"}
{"smiles": "O=C(Nc1cnccn1)Nc1ccc(Cl)cc1Cl", "activity change, negative = inhibition": "inconclusive: 23%"}
{"smiles": "O=C(N/N=C\\c1cn(-c2ccccc2)nc1-c1ccccc1)c1ccc2c(c1)OCO2", "Potency": "inconclusive: 11.2 µM [falling, partial curve]"}
{"smiles": "COC(=O)c1ccc(CNC(=O)N2CCN(S(=O)(=O)c3ccc(C)cc3)CC2)cc1", "activity change, negative = inhibition": "inactive: 0.906%"}
{"smiles": "CCOC(=O)N1CCC(n2c(SCC(=O)NCc3ccco3)nc3ccsc3c2=O)CC1", "activity change, negative = inhibition": "inconclusive: 0.634%"}
{"smiles": "CC(C)Cc1nc(N2CCC(C(N)=O)CC2)c2nnn(Cc3ccccc3)c2n1", "activity change, negative = inhibition": "inconclusive: -0.0728%"}
{"smiles": "Nc1ncnc2c1ncn2[C@@H]1O[C@H](CNS(=O)(=O)c2ccc(-c3ccno3)s2)[C@@H](O)[C@H]1O", "activity change, negative = inhibition": "inconclusive: -1.96%"}
{"smiles": "COc1cc(C(=O)OCCC(C)C)cc(OC)c1O", "activity change, negative = inhibition": "inconclusive: -11.8%"}
{"smiles": "Cc1[nH]c(=O)c(C(=O)/C=C/c2ccccc2)c2c1CCCC2", "activity change, negative = inhibition": "inconclusive: -2.72%"}
{"smiles": "CCN(CC)c1ccc(N=Cc2cc(Br)ccc2O)cc1", "activity change, negative = inhibition": "inactive: -12.7%"}
{"smiles": "Cn1c(SCCOc2ccccc2Cl)nnc1-c1cccs1", "Potency": "inconclusive: 29.1 µM [falling, single point]"}
{"smiles": "O=S(=O)(Nc1ccc(-c2csc(-c3ccccc3)n2)cc1)c1ccc(F)cc1", "Potency": "inconclusive: 16.4 µM [rising, partial curve, poor fit]"}
{"smiles": "O=C1CSC(=Nc2cccc(Cl)c2Cl)N1Cc1cccnc1", "activity change, negative = inhibition": "inactive: -17.4%"}
{"smiles": "Cn1cncc1C#Cc1c(C=O)[nH]c2ccccc12", "Potency": "inconclusive: 16.4 µM [falling, partial curve]"}
{"smiles": "O=C(CNC(=O)c1sc2ccccc2c1Cl)Nc1ccccc1F", "activity change, negative = inhibition": "inconclusive: -2.58%"}
{"smiles": "CSc1nc2nc(-c3ccccc3)cc(=O)n2[nH]1", "Potency": "inconclusive: 4.11 µM [falling, partial curve]"}
{"smiles": "FC(F)(F)c1cc(-c2cccs2)nc(N2CCOCC2)n1", "activity change, negative = inhibition": "inactive: -5.12%"}
{"smiles": "CC(=O)c1ccc(N2C(=O)N(Cc3cccc(C(F)(F)F)c3)c3ccccc3S2(=O)=O)cc1", "Potency": "inconclusive: 31.6 µM [falling, single point]"}
{"smiles": "CC1CCCC/C1=N\\Nc1ccc(S(N)(=O)=O)cc1[N+](=O)[O-]", "note": "(stereo not drawn)", "activity change, negative = inhibition": "inactive: 7.34%"}
{"smiles": "CC(C)(C)NC(=O)NC(=O)CSc1nnc(-c2ccccc2F)n1N", "activity change, negative = inhibition": "inconclusive: 9.32%"}
{"smiles": "CS(=O)(=O)N1CCN(C(=O)c2ccncc2)CC1", "activity change, negative = inhibition": "inconclusive: -0.0396%"}
{"smiles": "COc1ccccc1NS(=O)(=O)c1cccc(NC(=O)Nc2ccccc2)c1", "activity change, negative = inhibition": "inconclusive: 3.96%"}
{"smiles": "O=C(Cn1nc(-c2ccccc2)ccc1=O)NCc1ccc(F)cc1Cl", "activity change, negative = inhibition": "inconclusive: 0.34%"}
{"smiles": "COc1cc(/C=N/N2C(=O)CSC2=S)ccc1O", "activity change, negative = inhibition": "inactive: -8.9%"}
{"smiles": "COc1ccccc1Nc1nn2c(=O)c3ccc(C(=O)N4CCC(C)CC4)cc3nc2s1", "activity change, negative = inhibition": "inconclusive: 6.92%"}
{"smiles": "O=[N+]([O-])c1ccc(O)c(/C=N/n2cnnc2)c1", "activity change, negative = inhibition": "inactive: 5.78%"}
{"smiles": "CCOC(=O)c1c(C)c(/C=N/Nc2ccccc2)n(C)c1C", "activity change, negative = inhibition": "inactive: -22.9%"}
{"smiles": "Cn1nnnc1SCC(=O)N1CCN(c2ccc(Cl)cc2)CC1", "activity change, negative = inhibition": "inconclusive: 6.44%"}
{"smiles": "COc1cccc(C#Cc2c(CO)[nH]c3ccccc23)c1", "activity change, negative = inhibition": "inactive: 9.2%"}
{"smiles": "CCOC(=O)c1[nH]c(C)c(C(=O)OCC)c1C", "Potency": "inconclusive: 16.4 µM [falling, partial curve]"}
{"smiles": "COc1ccc(-c2noc(N3CCC(C(=O)NCCCN4CC(C)CC(C)C4)CC3)n2)cc1", "note": "(stereo not drawn)", "activity change, negative = inhibition": "inactive: -14.9%"}
{"smiles": "CCOC(=O)c1ccccc1NC(=O)N[C@@H](C)C(=O)OC", "activity change, negative = inhibition": "inconclusive: 0.506%"}
{"smiles": "O=C(CSc1nc(=O)n(CCN2CCOCC2)c2c1CCCC2)Nc1ccc(F)cc1F", "activity change, negative = inhibition": "inactive: 0.594%"}
{"smiles": "CCN(Cc1ccncc1)C(=O)c1cc(COc2ccc(C)c(C)c2)on1", "Potency": "inconclusive: 31.6 µM [falling, single point]"}
{"smiles": "CCc1ccc(C(=O)CSc2nnc(C3CC3)n2C2CC2)cc1", "activity change, negative = inhibition": "inconclusive: 2.6%"}
{"smiles": "COCc1c(C(=O)OCc2c(C)noc2C)oc2ccccc12", "Potency": "inconclusive: 8.91 µM [falling, partial curve, poor fit]"}
{"smiles": "CCCCOC(=O)Nc1nnc(SCCOc2ccc(C)cc2)s1", "activity change, negative = inhibition": "inconclusive: 0.074%"}
{"smiles": "Cc1cc(OCc2ccc(C(=O)n3cccn3)o2)ccc1Cl", "Potency": "inconclusive: 29.1 µM [falling, partial curve]"}
{"smiles": "C=CCn1c(CCc2cc(C(C)(C)C)c(O)c(C(C)(C)C)c2)n[nH]c1=S", "Potency": "inconclusive: 20 µM [falling, partial curve, poor fit]"}
{"smiles": "C=CCOc1cccc(C2/C(=C(/O)c3ccc(C)cc3)C(=O)C(=O)N2CCN2CCOCC2)c1", "note": "(stereo not drawn)", "activity change, negative = inhibition": "inconclusive: -6.9%"}
{"smiles": "COc1ccccc1OC(=O)Nc1ccc(Cl)cc1", "activity change, negative = inhibition": "inconclusive: -1.96%"}
{"smiles": "Cc1cccc(C(=O)Nc2c3c(nn2-c2ccc(Cl)cc2)CS(=O)(=O)C3)c1", "activity change, negative = inhibition": "inconclusive: 12.1%"}
{"smiles": "CCN(C(=O)COC(=O)c1c(C)noc1C)C1CCS(=O)(=O)C1", "note": "(stereo not drawn)", "Potency": "inconclusive: 15.8 µM [falling, partial curve]"}
{"smiles": "CCOC(=O)C1CCN(C(=O)Nc2ccc3nc(-c4ccco4)c(-c4ccco4)nc3c2)CC1", "activity change, negative = inhibition": "inconclusive: 27.7%"}
{"smiles": "O=C(/C=N/NC(=O)c1ccccc1Br)c1ccccc1", "Potency": "inconclusive: 28.2 µM [cytotoxic, single point]"}
{"smiles": "CCOc1ccccc1NC(=O)CSc1ncnc2c1oc1ccccc12", "activity change, negative = inhibition": "inactive: -2.41%"}
{"smiles": "Cc1ccc(-n2nnnc2-c2cccnc2)cc1", "activity change, negative = inhibition": "inactive: -4.75%"}
{"smiles": "O=C(c1cc(C2CC2)nn1-c1ccccc1)N1CCN(c2ccccc2O)CC1", "activity change, negative = inhibition": "inactive: -0.324%"}
{"smiles": "O=C(NC1CCCCC1)c1ccc(S(=O)(=O)N2CCCC2)cc1", "Potency": "inconclusive: 0.116 µM [falling, full curve, poor fit]"}
{"smiles": "Cc1ccccc1NC(=S)N(CCN1CCCCC1)Cc1ccco1", "activity change, negative = inhibition": "inactive: 1.09%"}
{"smiles": "CCN(CC(=O)Nc1cc(C)c(Cl)cc1OC)CC(=O)NC1CCS(=O)(=O)C1", "note": "(stereo not drawn)", "activity change, negative = inhibition": "inactive: 2.11%"}
{"smiles": "Cc1ccccc1OCCn1c(=O)oc2ccccc21", "activity change, negative = inhibition": "inactive: -0.271%"}
{"smiles": "O=C(COC(=O)c1ccc(Br)o1)Nc1ncc([N+](=O)[O-])s1", "activity change, negative = inhibition": "inconclusive: -7.88%"}
{"smiles": "COc1ccccc1NC(=O)c1ccc(Cl)c(S(=O)(=O)N2CCOCC2)c1", "activity change, negative = inhibition": "inactive: 3.08%"}
{"smiles": "Cc1ccc(C(=O)Oc2cc(N)n(S(=O)(=O)c3ccc(C)cc3)n2)cc1", "activity change, negative = inhibition": "inactive: -9.16%"}
{"smiles": "CCCCNC(=O)CCC(=O)NNc1nc2ccccc2c2nc(-c3ccccc3)nn12", "activity change, negative = inhibition": "inactive: 0.301%"}
{"smiles": "CN(C)S(=O)(=O)c1ccc(Cl)c(NC(=O)COC(=O)CCSc2ccccc2)c1", "Potency": "inconclusive: 16.4 µM [falling, partial curve, poor fit]"}
{"smiles": "CCCCC(=O)Nc1ccc(NC(=O)c2ccccc2[N+](=O)[O-])cc1OC", "activity change, negative = inhibition": "inconclusive: -1.44%"}
{"smiles": "COc1ccc(C2C(C(=O)Nc3ccccc3OC)=C(C)Nc3ncnn32)cc1", "note": "(stereo not drawn)", "activity change, negative = inhibition": "inconclusive: 5.26%"}
{"smiles": "O=C(Nc1nc2ccccc2s1)C1c2ccccc2Oc2ccccc21", "Potency": "inconclusive: 16.4 µM [rising, partial curve, poor fit]"}
{"smiles": "COc1cccc(-c2nc(NCc3ccccc3)c3ccccc3n2)c1O", "activity change, negative = inhibition": "inactive: 0.453%"}
{"smiles": "O=C(NCc1ccc(F)cc1)C1CCCN(S(=O)(=O)c2ccc(Br)s2)C1", "note": "(stereo not drawn)", "activity change, negative = inhibition": "inconclusive: -0.525%"}
{"smiles": "COc1cc(Cl)c(C)cc1NC(=O)Cc1ccc(OC)c(OC)c1", "activity change, negative = inhibition": "inconclusive: -11.8%"}
{"smiles": "O=C(CN(c1cccc(C(F)(F)F)c1)S(=O)(=O)c1ccc(Cl)c([N+](=O)[O-])c1)NCc1ccccc1", "Potency": "inconclusive: 18.4 µM [falling, single point]"}
{"smiles": "CCCCCC(=O)O[C@]1(C(C)=O)CC[C@H]2[C@@H]3CCC4=CC(=O)CC[C@]4(C)[C@H]3CC[C@@]21C", "activity change, negative = inhibition": "inactive: 3.25%"}
